Reference: PMC10418980, “Synthesis and Evaluation of ^177Lu-DOTA-PD-L1-i and ^225Ac-HEHA-PD-L1-i as Potential Radiopharmaceuticals for Tumor Microenvironment-Targeted Radiotherapy” (International Journal of Molecular Sciences, 2023)
Several values for one entry are separate records, joined by “and”; a condition that tells them apart may be missing. Equal entries are not always repeated.

Tested on: target organs of athymic mice with HCC827 lung micrometastases
Experiment: Absorbed radiation dose assessment
Format: in vivo
[1] = 177Lu, integration of A(t) from t = 0 to ∞

**Q.** Which results are given for CCCC[C@H]1C(=O)N(C)[C@@H](CCCC)C(=O)N[C@@H](CCCNC(=S)Nc2ccc(C[C@H]3CN(CC(=O)O)CCN(CC(=O)O)CCN(CC(=O)O)CCN3CC(=O)O)cc2)C(=O)N[C@H](C(=O)NCC(N)=O)CSCC(=O)N[C@@H](Cc2ccc(O)cc2)C(=O)N(C)[C@@H](C)C(=O)N[C@@H](CC(N)=O)C(=O)N2CCC[C@H]2C(=O)N[C@@H](Cc2c[nH]cn2)C(=O)N[C@@H](CC(C)C)C(=O)N2C[C@H](O)C[C@H]2C(=O)N[C@@H](Cc2c[nH]c3ccccc23)C(=O)N[C@@H](CO)C(=O)N[C@@H](Cc2cn(C)c3ccccc23)C(=O)N1C [^177Lu-DOTA-PD-L1-i, metal not drawn]?
**A.** radiation absorbed dose, kidney (177Lu, DF values of OLINDA 2.0): 4.20 mGy/MBq; radiation absorbed dose, liver (177Lu, DF values of OLINDA 2.0): 0.85 mGy/MBq; radiation absorbed dose, lung (HCC827 cancer cells) (177Lu, DF values of OLINDA 2.0): 43 mGy/MBq and 43.0 mGy/MBq; total nuclear transformations N, kidney [1]: 10.9 MBq·h; total nuclear transformations N, liver [1]: 9.67 MBq·h; total nuclear transformations N, lung (HCC827 cancer cells) [1]: 59.3 MBq·h; absorbed radiation dose to the lungs relative to the kidneys (lung micrometastases vs kidneys): ten
